# Laboratory results: PubChem BioAssay AID504834 (National Center for Advancing Translational Sciences (NCATS), 2011)
# About 22,000 (6.9%) of roughly 320,000 compounds were called active. Inconclusive results, whose numbers are uncertain, are shown with a selection of clear calls. Calls follow the shape of the dose curve; as a rule, active = well fitted inhibition curve with a large enough effect; inconclusive = small, poorly fitted or top-dose-only effect, or another doubt; inactive = no such curve, though single readings can be large or run the other way. Where the call is inconclusive, the potency comes from a doubtful curve fit.
# Test: Primary qHTS for delayed death inhibitors of the malarial parasite plastid, 96 hour incubation
# Conditions: P. falciparum luciferase reporter growth; series mostly up to 28.7 µM
# Summary of the method: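 96 h incubation, 37 C, 5% CO2, of luciferase-reporter P. falciparum-infected RBCs (2% hematocrit, 0.05% parasitemia final) with test compounds; endpoint luminescence.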
# Potency is read from the fitted curve at half-maximal effect.
row,Structure (SMILES),Potency
1,Cc1cccc(C)c1N1C(=O)C(Cl)=C(N2CCCC2)C1=O,"inconclusive: 11.7 µM [inhibitor, single point]"
2,COc1ccc(CCNC(=O)C(=O)NCCOc2ccccc2Cl)cc1OC,"inconclusive: 4.15 µM [inhibitor, partial curve, poor fit]"
3,C/C(=N\NC(=O)CN(c1ccccc1)S(C)(=O)=O)c1ccccc1O,"inconclusive: 18.5 µM [inhibitor, single point]"
4,O=C(N[C@H]1CCC(=O)N([C@H](CSc2ccccc2)Cc2ccccc2)CC1)OCc1ccccc1,active: 8.28 µM
5,O=C(c1ccc2ccccc2c1)N1CCOCC1,inactive
6,COc1ccccc1CCNC(=O)C1CCN(c2nnc(C)c3c(C)n(-c4ccc(C)cc4)nc23)CC1,"inconclusive: 2.62 µM [inhibitor, full curve]"
7,Cc1cc(NC(=O)c2ccc(Cl)cc2)c(C(C)C)cc1O,"inconclusive: 18.5 µM [inhibitor, single point]"
8,Cc1ccc(NS(=O)(=O)c2cc(C(=O)NCc3ccccn3)ccc2Cl)cc1C,"inconclusive: 18.5 µM [inhibitor, single point]"
9,CCCCOc1ccc(S(=O)(=O)N2CCCCCC2)cc1,active: 11.7 µM
10,CCCOc1cccc(C(=O)O)c1,"inconclusive: 11.7 µM [inhibitor, partial curve]"
11,CCCOP(=O)(c1ccc(N(C)C)cc1)C(O)c1ccc(Cl)cc1 (configuration not stated),inactive
12,COc1ccccc1N1CCN(/N=C/C(Cl)=C/c2ccccc2)CC1,inactive
13,CCC(C)N1C(=S)SC(C)(C)C1N(O)C(=O)NC1CCCCC1 (configuration not stated),"inconclusive: 18.5 µM [inhibitor, single point]"
14,Cc1ccc(Nc2c(-c3ccc(C)o3)nc3cnccn23)cc1,active: 0.738 µM
15,CC(Oc1cccc(Cl)c1)C(=O)N1CCN(c2ncccn2)CC1 (configuration not stated),"inconclusive: 18.5 µM [inhibitor, single point]"
16,COc1cc(C(=O)OCC(=O)N2CCNC2=O)cc(Cl)c1OC,inactive
17,O=C(CCCOc1ccccc1)Nc1ccc(S(=O)(=O)Nc2ccccn2)cc1,inactive
18,COc1ccc(C(C)=O)cc1CSc1nnc(Nc2ccc(C)cc2C)s1,"inconclusive: 0.147 µM [inhibitor, full curve, poor fit]"
19,Cc1cc(C)cc(COc2ccc3c(C)c(CC(=O)O)c(=O)oc3c2C)c1,inactive
20,COc1ccc(C2c3[nH]c4ccccc4c3CCN2C(=O)c2ccc(=O)n(C)n2)c(F)c1 (configuration not stated),inactive
21,Cc1cccc2c1nc(-c1ccccc1)n1cnnc21,inactive
22,COC(=O)C1=C(C)N(Cc2ccccc2)C(=NCc2ccc(OC)cc2)N[C@H]1c1ccccc1,inactive

# Ordered by length of the SMILES (smallest number first): part of the list above
row,Structure (SMILES),Potency
9,CCCCOc1ccc(S(=O)(=O)N2CCCCCC2)cc1,active: 11.7 µM
15,CC(Oc1cccc(Cl)c1)C(=O)N1CCN(c2ncccn2)CC1 (configuration not stated),"inconclusive: 18.5 µM [inhibitor, single point]"
20,COc1ccc(C2c3[nH]c4ccccc4c3CCN2C(=O)c2ccc(=O)n(C)n2)c(F)c1 (configuration not stated),inactive
